From PubChem BioAssay AID2417 (National Center for Advancing Translational Sciences (NCATS), 2010)
The whole screen tested about 140,000 compounds, of which about 4,300 (3.1%) were called active. This list was built around the results that the source calls inconclusive (neither active nor inactive); the mix of calls is not that of the screen.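 The calls were made as follows: active = readout at or below -70, meaning at least 70% loss of cells showing the perinucleolar compartment, a nuclear body marking cancer cells; inconclusive = readout between -30 and a set limit; inactive = the rest.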

test: High Content Assay for Compounds that inhibit the Assembly of the Perinucleolar Compartment; settings: PC3M PTB-GFP, PNC prevalence imaging, 16 h; at 10 µM; active compounds read low;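 also: plate controls were DMSO wells for no effect and camptothecin positive control wells for full effect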
Outline: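 PC3M cells stably expressing PTB-GFP, 750–1000 cells/well, treated 16 h at 37 °C with compound (23 nl of library stock), in duplicate. After paraformaldehyde fixation and Hoechst stain, imaged at 20x; PNC prevalence scored by image analysis.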

Compound | activity change (PNC), negative = inhibition
O=C(CCn1c(=O)[nH]c2ccsc2c1=O)Nc1ccc(F)c(F)c1 | inactive: 42.4%
Cn1cc(C(=O)c2cccc(Cl)c2Cl)cc1C(=O)O | inconclusive: -31.3%
Cc1cccc(OC(=O)c2ccc3nccnc3c2)c1 | inactive: 27%
Cc1cc(NS(=O)(=O)c2ccc(NC(=S)NC(=O)c3ccc(F)cc3Cl)cc2)no1 | inactive: -22%
Cc1ccc(-c2nn3c(C)nnc3s2)cc1NC(=O)c1ccc(OC(C)C)cc1 | inconclusive: -30.7%
COc1ccc(C(NC=O)c2cc(OC)c(OC)cc2Br)cc1OC (stereo not drawn) | inactive: -4.1%
Cc1ccc(OCc2nnc(SCC(=O)N3CCOCC3)n2C)cc1 | active: -107%
Cc1ccc(C)c(NC(=O)C(Sc2nnc(-c3cccs3)o2)c2ccccc2)c1 (stereo not drawn) | inconclusive: -61.9%
CCNc1ccc(C(=O)O)cc1N | inconclusive: -36.7%
CCOC(=O)c1cccc(NC(=O)CN(c2ccc(C)cc2)S(=O)(=O)c2c(C)n[nH]c2C)c1 | inconclusive: -33.8%
Cn1c(COc2ccccc2)nnc1SCCSc1nnc(COc2ccccc2)n1C | inactive: -18.7%
Clc1cccc2sc(N3CCCCC3)nc12 | active: -82.3%
O=C(OC(C(=O)NCc1cccs1)c1ccc(F)cc1)c1ccco1 (stereo not drawn) | inconclusive: -52%
COc1ccc(NC(=S)N2CCN(C(c3ccccc3)c3ccccc3)CC2)cc1OC | inconclusive: -64.5%
Cc1nc2nc(-c3ccc(Cl)cc3)[nH]n2c(=O)c1Cc1ccccc1 | inconclusive: -59%
Cc1ccc(OCC(=O)N2CCN(c3ccc([N+](=O)[O-])c(N4CCOCC4)c3)CC2)cc1 | inactive: 14.3%
CC1(C)CC2(CC(c3ccccc3)Oc3cc(O)ccc32)NC(=S)N1 (stereo not drawn) | inconclusive: -30.3%
O/N=C/c1ccc(OCc2ccccc2F)c(Cl)c1 | inconclusive: -56.4%
COc1ccc(N2C(=O)CC(NCc3ccc(F)cc3)C2=O)cc1 (stereo not drawn) | inconclusive: -32.2%
CC1(C)CCC(=O)N(c2ccccc2)C1=O | inconclusive: -66.5%
O=C(/C=C/c1c(Cl)cccc1Cl)n1cccn1 | active: -94.7%
COc1ccc(/C=C2/Sc3ccc(C(=O)N4CCc5ccccc5C4)cc3NC2=O)cc1 | inactive: 19.8%
C=CCn1c(SCC(=O)Nc2ccc(C(=O)OC(C)C)cc2)nnc1-c1cccs1 | inconclusive: -51%
CC1(C(=O)CSc2ncn[nH]2)CCC(=O)O1 (stereo not drawn) | inactive: -4.14%

Compound | activity change (PNC), negative = inhibition
CCCCCCCCCCCCCCCC[n+]1cccc(C(=O)N(CC)CC)c1 | inconclusive: -53.3%
Cc1ccccc1N(CC(=O)N1CCN(c2ccccc2)CC1)S(C)(=O)=O | inconclusive: -59.5%
O=C(CN1CCOCC1)Nc1cccc(Cl)c1Cl | inconclusive: -43.8%
Nc1nc(-c2ccccc2)cc(N2CCCCC2)n1 | active: -106%
CC(C)P(=O)(c1cccc(C(=O)O)c1)C(C)C | inactive: 27.6%
C(=C\c1ccccc1)/CSc1nnc(-c2ccccn2)n1Cc1ccco1 | inconclusive: -35.1%
Cc1ccc(-c2ccccc2)n1-c1ccc(C(=O)O)cc1 | inactive: -10.5%
CCOC(=O)C(NC(C)=O)(N1CCOCC1)C(F)(F)F (stereo not drawn) | inactive: -2.45%
OC(COCc1cccs1)CN1CCN(c2cccc(C(F)(F)F)c2)CC1 (stereo not drawn) | inconclusive: -68.6%
COc1ccc(C(=O)COC(=O)COc2ccc(C)c(C)c2)cc1 | active: -83.5%
COCCCNC(=O)c1sc2ncnc(N3CCc4ccccc4C3)c2c1C | inactive: 21%
Nc1c(C(=O)NCc2ccccc2)nnn1Cc1ccc(F)cc1 | inactive: 4.05%
S=C(Nc1ccc(Cl)cc1)N(CCCN1CCOCC1)Cc1ccco1 | inconclusive: -32.8%
COc1ccc(Cn2cc3c(-c4ccc(F)cc4)nnc-3c3cc(OC)c(OC)cc32)cc1 | inconclusive: -60.8%
CCCOC(=O)c1cccc(NC(=O)C(C)(C)C)c1 | inconclusive: -56.8%
Cc1ccc(N(CC(=O)NC2CCCC2)C(=O)c2c(C)noc2C)cc1C | inconclusive: -46.3%
CCCCc1cc(=O)oc2cc(C)cc(OC(C)C(=O)O)c12 (stereo not drawn) | inconclusive: -68.9%
O=[N+]([O-])c1cc(S(=O)(=O)Nc2ccccc2)ccc1N1CCN(c2ccc(O)cc2)CC1 | inactive: 37.1%
CC(C)c1nnc(NC(=O)CCC(=O)NCc2ccco2)s1 | inactive: -13.9%
COCCn1c(=S)[nH]c2cc(C(=O)N3CCN(Cc4ccc5c(c4)OCO5)CC3)ccc2c1=O | inconclusive: -57.9%
CC(=O)c1ccccc1NC(=O)Cn1c(=O)cnc2ccccc21 | inconclusive: -76.5%
O=C(NCc1ccco1)C1CCN(S(=O)(=O)N2CCOCC2)CC1 | inconclusive: -39.6%
Brc1ccc(-c2noc(COc3ccc4c(c3)CCC4)n2)o1 | active: -80.3%
COc1ccc(Cc2nn3c(Cn4nnc5ccccc54)nnc3s2)cc1 | inconclusive: -39.1%

Compound | activity change (PNC), negative = inhibition
CCOc1ccc(NC(=S)N(CCCN2CCOCC2)Cc2cn(C)c3ccccc23)cc1 | inconclusive: -52.7%
COC(=O)CN1C(=O)CSc2ncccc21 | inconclusive: -58%
CCOC(=O)c1cc2occc2n1Cc1c(F)cccc1Cl | inactive: -8.87%
COc1cc(NS(=O)(=O)c2ccc(NC(=O)NC3CCCCC3)cc2)nc(OC)n1 | inconclusive: -47.2%
COc1ccc(/C=C(\C#N)C(=O)NCCCn2ccnc2)cc1 | inactive: 60.5%
CC1=CC2=NC(=O)/C(=C\c3ccc(-c4cccc(Cl)c4)o3)C(=N)N2O1 | inactive: -24.9%
COc1cccc(-c2cc(C(=O)N3C(C)CCCC3C)no2)c1 (stereo not drawn) | active: -90.6%
Nc1nc2c(s1)CC(c1ccccc1)CC2 (stereo not drawn) | inconclusive: -72.2%
O=C(O)c1ccc(F)c(S(=O)(=O)Nc2ccccc2)c1 | inconclusive: -34.3%
O=C(Oc1nsnc1N1CCOCC1)c1ccccc1 | inconclusive: -42.5%
CCn1c(SCC(=O)OC)nnc1-c1ccncc1 | inconclusive: -47.6%
COc1ccc(C2(O)CCN(CCCCOc3ccccc3)CC2)cc1 | inconclusive: -53.9%
Cc1ccc(NCc2ccccc2O)cc1 | inconclusive: -36.6%
CC1=C(C(N)=O)C(c2ccccc2)n2nc(-c3cccs3)nc2N1 (stereo not drawn) | inconclusive: -38.3%
CCOC(=O)c1cccc(NC(=O)C(C)N2C(=O)c3ccccc3C2=O)c1 (stereo not drawn) | inconclusive: -77%
Cc1cc(C)c(C)c(S(=O)(=O)NCC(=O)Nc2sc3c(c2C(N)=O)CCCC3)c1C | inactive: -11.1%
O=[N+]([O-])c1cc(-c2cnc3ccccc3n2)ccc1Oc1ccc(Br)cc1 | active: -106%
CC1(C)CC(=O)c2c(-c3cccnc3)n[nH]c2C1 | inactive: 30.5%
CC(=O)c1cccc(NC(=S)NC(=O)c2cccc(Cl)c2)c1 | inconclusive: -32.8%
CCc1nc(N2CCN(C(=O)c3ccccc3)CC2)c(C#N)c2c1COC(C)(C)C2 | inconclusive: -66.6%
COc1ccccc1C1/C(=C(/O)c2ccc(C)cc2)C(=O)C(=O)N1CCN1CCOCC1 (stereo not drawn) | inconclusive: -50.2%
CC1CCCC(C)N1C(=O)CSCc1ccc(Cl)cc1 (stereo not drawn) | inactive: 2.91%
COc1nc(OC)nc(N2CCC(C(=O)NCc3ccc(F)cc3)CC2)n1 | inconclusive: -47.8%
O=C(NC(=S)Nc1ccc2oc(=O)ccc2c1)c1ccc(-c2cccc(Cl)c2Cl)o1 | inactive: -8.36%

As entered above.
activity change (PNC), negative = inhibition, `CCn1c(SCC(=O)OC)nnc1-c1ccncc1` reads inconclusive: -47.6%
activity change (PNC), negative = inhibition, `COc1ccc(C2(O)CCN(CCCCOc3ccccc3)CC2)cc1` reads inconclusive: -53.9%

Additional compounds:

Compound | activity change (PNC), negative = inhibition
CO/N=C/C(=N\Nc1ccc(C)cc1)C(=O)c1ccc(OC)cc1 | inconclusive: -74.1%
CCC(=O)N1CC23C=CC(CC2CC12CCCCC2)O3 (stereo not drawn) | active: -124%
Cn1c(SCC(=O)OCC(=O)c2ccccc2)nnc1-c1cccs1 | inconclusive: -59.3%
COc1ccc(/C=C/C(=O)Nc2cc(=O)n(C)c(=O)n2C)cc1 | inconclusive: -32.6%
CNC(=O)[C@@]1(C)C=C[C@@H](Cc2ccccc2)N1C(=O)OC | active: -95.8%
CCCOc1ccc(C2(C(=O)O)CCCC2)cc1 | inconclusive: -43.5%
COC(=O)N/N=C\c1c(C)nn(-c2ccccc2)c1Cl | inactive: -19.9%
CCC(C)OC(=O)n1ccc(C(=O)Nc2nccs2)n1 (stereo not drawn) | inconclusive: -44.9%
COC(=O)c1[nH]c2c(c1C)C(=O)CC(c1cccs1)C2 (stereo not drawn) | active: -85.5%
CCn1c(SCC(=O)Nc2cc(C)c(Cl)cc2OC)nnc1-c1ccco1 | inconclusive: -56.5%
O=C(NCc1ccco1)c1cccc(F)c1 | inactive: 5.34%
O=C(N/N=C/c1cccc(F)c1)c1cc(-c2ccco2)nc2ccccc12 | inconclusive: -40.2%
COC(=O)c1sc(NC(=S)NC(=O)c2ccccc2)nc1C | active: -87.6%
O=C(Nc1cccc2nsnc12)c1cccnc1Cl | inconclusive: -53.9%
Cc1ccccc1Cc1c(C)nc2c(C(=O)NCc3ccc4c(c3)OCO4)cnn2c1C | inconclusive: -32.4%
CCOC(=O)Cc1csc(SCC(=O)NC(C)C23CC4CC(CC(C4)C2)C3)n1 (stereo not drawn) | inactive: 20%
Cc1ccc(CSc2ccc3nnc(-c4cccnc4)n3n2)cc1 | inconclusive: -36.9%
COCCNC(=O)c1onc(CSc2ccccc2F)c1C(=O)O | inconclusive: -38.7%
CC(C)CC(=O)NC(=S)NNC(=O)c1ccc(NC(=O)C2CCCCC2)cc1 | inactive: 31.6%
COc1ccc(/C(O)=C(\C#N)c2nc3ccccc3n2C)cc1OC | inconclusive: -33.2%
CC1CCN(S(=O)(=O)c2ccc(NC(=O)Cn3nnc(-c4ccccc4)n3)cc2)CC1 | active: -100%
